Data taken from ChEMBL document CHEMBL3988442, “University of Dundee, Small-Polar-MMV Screening Library” (2021).

The chains behind the UniProt entries cited, without tags or fusion partners.
UniProt E9BF75, entry or part of it: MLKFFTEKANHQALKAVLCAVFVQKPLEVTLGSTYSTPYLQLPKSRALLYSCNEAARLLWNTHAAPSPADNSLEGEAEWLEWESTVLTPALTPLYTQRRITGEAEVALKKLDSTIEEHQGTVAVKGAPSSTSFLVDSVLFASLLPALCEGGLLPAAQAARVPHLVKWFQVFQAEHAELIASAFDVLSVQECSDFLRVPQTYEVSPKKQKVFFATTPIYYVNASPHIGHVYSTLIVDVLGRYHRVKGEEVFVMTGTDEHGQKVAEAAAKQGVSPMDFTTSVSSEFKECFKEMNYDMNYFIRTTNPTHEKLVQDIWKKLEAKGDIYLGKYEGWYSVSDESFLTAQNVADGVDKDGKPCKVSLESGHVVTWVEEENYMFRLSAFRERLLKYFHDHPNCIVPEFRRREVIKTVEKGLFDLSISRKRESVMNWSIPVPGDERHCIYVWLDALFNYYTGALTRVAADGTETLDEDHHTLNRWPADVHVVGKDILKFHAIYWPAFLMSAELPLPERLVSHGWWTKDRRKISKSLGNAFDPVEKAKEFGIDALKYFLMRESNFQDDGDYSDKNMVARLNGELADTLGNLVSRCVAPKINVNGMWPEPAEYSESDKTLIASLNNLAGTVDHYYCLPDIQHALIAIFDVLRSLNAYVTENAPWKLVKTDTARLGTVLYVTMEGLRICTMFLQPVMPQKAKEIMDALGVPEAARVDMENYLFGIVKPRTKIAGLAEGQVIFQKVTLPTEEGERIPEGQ

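Primary screen of methionyl-tRNA synthetase; the read-out is not stated. Target: Methionyl-tRNA synthetase (putative), Leishmania donovani (UniProt E9BF75). The test concentration is not given. The values are filed as inhibition. Of about 68,000 compounds tested this way, about 24 (0.035%) reached 50% or more in at least one test.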

Results are percentages, as filed.
How 0% and 100% were set is not recorded. Most values in the screen are low, and negative values occur.
The compounds are a random part of those screened.

| SMILES | Inhibition |
|---|---|
| `CCOC(=O)CNC(=O)NCc1cccn1Cc1ccccc1` | 14.58 |
| `Cc1nc(-c2cncnc2C2CCCNC2)no1` (stereo not shown) | 0.3125 |
| `COc1ccc2c(ccn2CCC(=O)Nc2ccc(C(N)=O)cc2)c1` | 10.21 |
| `c1ccc(Cn2cccn2)c(CN2CCCCC2CCn2ccnc2)c1` (stereo not shown) | 14.25 |
| `CN(C)Cc1cn(CC2CCCN(c3nccc4occc34)C2)nn1` (stereo not shown) | 6.301 |
| `CCSc1ncc(CN2CC[C@@](O)(COC)C(C)(C)C2)cn1` | 19.23 |
| `CCN(CC(=O)N(C)C)C(=O)c1ccc(-c2nc(C)cs2)cc1` | 11.43 |
| `Cc1cccc(NC(=O)CNC(=O)c2ccccc2F)c1` | -6.516 |
| `Cn1cccc1CN(C(=O)Cc1cccs1)C1CC1` | 9.887 |
| `COc1c(Br)c(C(=O)NC2CCCCC2)nn1C` | 19.26 |
| `CN(C)C[C@@H]1OC[C@H]2CN(Cc3ccoc3)CC[C@H]21` | 6.529 |
| `N#Cc1cccc(OCC(=O)N(Cc2ccncc2)C2CC2)c1` | 14.95 |
| `CC(C(N)=O)N(C)CCCc1cc(-c2ccc(F)cc2)n(C)n1` (stereo not shown) | 20.43 |
| `O[C@@]1(Cn2cnc(Cl)c2Cl)CCCN2CCCC[C@@H]21` | 16.97 |
| `Cc1nc(C)n(CC2CN(c3ncccn3)Cc3nccn3C2)n1` (stereo not shown) | 18.22 |
| `OC1(CN2CCN(c3cccc(C(F)(F)F)c3)CC2)CNCCOC1` (stereo not shown) | 9.044 |
| `Cc1nn(C(C)C)c(C)c1S(=O)(=O)Nc1cccc(C(=O)O)c1` | 15.96 |
| `Fc1ccc2nc([C@H]3CCNC3)[nH]c2c1` | 9.774 |
| `Cc1cccc(C)c1NC(=O)c1cccc(N(C)S(C)(=O)=O)c1C` | -15.19 |
| `CCCc1nnc(NC(=O)Cc2c(C)nc(C)[nH]c2=O)s1` | 18.95 |
| `O=S(=O)(Cc1c(F)cccc1F)NCCOc1cccnc1` | 0.303 |
| `O=C1CC(c2cccs2)c2cnn(C3CCCC3)c2N1` (stereo not shown) | 0.9756 |
| `CCCN(Cc1cccnc1)C(=O)C1CCN(Cc2ccco2)CC1` | 14.29 |
| `Cc1ccsc1S(=O)(=O)N1CCc2c(c(C(=O)O)nn2CC2CC2)C1` | 13.25 |
| `O=C(NC1(c2cccc(F)c2)CCOCC1)c1ccoc1` | 9.449 |
| `CCN(Cc1ccoc1)C(=O)NC1CCN(CC2CCCC2)CC1` | 24.47 |
| `Cc1ccc(-c2cc(N)c(=O)n(C(C)C(N)=O)n2)o1` (stereo not shown) | 16.04 |
| `Cc1ncsc1CCCn1ccnc1-c1cc2n(n1)CCCNC2` | 13.01 |
| `CS(=O)(=O)CCC(=O)NC(c1ccc(F)cc1)C(F)(F)F` (stereo not shown) | 17.1 |
| `CN(C)C1COC2(CCN(C(=O)c3cccc(Cl)c3)CC2)C1` (stereo not shown) | 14.44 |
| `Cc1ncsc1CN1CC[C@H]2OCC[C@@]2(C(=O)N(C)C)C1` | 13.48 |
| `Cc1cnc(CCN(C)C(=O)c2ccc(O)nc2C)s1` | 5.075 |
| `Cn1ccnc1CN1CCc2ncnc(N3CCCC3)c2CC1` | 9.42 |
| `CC(C)n1nnc2c(sc3nc(N4CCOCC4)c4c(c32)CCC4)c1=O` | 1.613 |
| `COCCN(C)C(=O)c1nc2c(s1)CCCN2S(C)(=O)=O` | 4.795 |
| `CCO[C@H]1CC[C@H]2[C@H]1OCCN2C(=O)COc1ccccc1` | 5.685 |
| `Cc1ccccc1N1CCN(c2cc(N(C)C)ncn2)C(C)C1` (stereo not shown) | 10.31 |
| `O=C1CC[C@H]2[C@H](CCN2C(=O)C2CCCO2)N1Cc1cccnc1` (stereo partly shown) | 15.85 |
| `COCC(C)(O)CNC(=O)COc1ccccc1OC` (stereo not shown) | 13.3 |
| `CC(CO)(CO)NC(=O)C1CCC(=O)N(Cc2ccc(Cl)cc2)C1` (stereo not shown) | 14.45 |
| `Cc1csc(CN2CC[C@H]3C[C@H](c4noc(C)n4)O[C@@H]3C2)n1` | 11.25 |
| `COc1ccc2cccc(CC(=O)NCc3n[nH]c(=O)[nH]3)c2c1` | 16.55 |
| `CCC1CCCCN1CCc1ccncc1` (stereo not shown) | 3.679 |
| `Cc1nc(-c2cccnc2)ncc1C(=O)N1CCC(C(C)N(C)C)CC1` (stereo not shown) | 12.93 |
| `COc1cc2nc(C)n(CC(=O)NCCO)c(=O)c2cc1OC` | 6.609 |
| `O=C(NCCc1cccnc1)c1nc2c(s1)CCCN2C(=O)C1CC1` | 14.55 |
| `CCN(CC)S(=O)(=O)N1C[C@@H]2CC[C@H](C1)N(Cc1cscn1)C2=O` | 9.51 |
| `Cc1nnc(CCNC2CCN(c3ncnc4c(C)csc34)CC2)s1` | 11.02 |
| `COc1cccc2c3c(c(=O)[nH]c12)CCC(C)(C)O3` | 12.63 |
| `CC(=O)N1CCN(c2cc(N(C)C)cnn2)CC1` | 2.158 |
| `O=C(Cc1c[nH]c2ccccc12)N1CCN(C(=O)c2ccoc2)CC1` | 16.9 |
| `Cc1nn(C)c(Cl)c1C1CCCN1C(=O)c1nccnc1N` (stereo not shown) | 16.34 |
| `CCc1nc(CN2CCCC(NCCn3cncn3)C2)no1` (stereo not shown) | -6.747 |
| `CCN(Cc1noc(C)n1)C(=O)C(c1cccc(C)c1)N(C)C` (stereo not shown) | 8.791 |
| `CN(C)c1ccc(C(=O)Nc2ccn(CC(N)=O)n2)cn1` | 12.04 |
| `Cn1cc(C(C)(O)CNc2ccc(Cl)c(C#N)n2)cn1` (stereo not shown) | 8.527 |
| `CNC(=O)COc1ccccc1CNC1CCc2nc(C)nn2C1` (stereo not shown) | 17.15 |
| `Cc1cc(NC(=O)CN2CCOC(Cn3nc(C)cc3C)C2)n(C)n1` (stereo not shown) | 5.842 |
| `Cn1cccc1C(=O)N1CCC2(CC1)CN(c1ccccn1)CCO2` | 2.362 |
| `CC(=O)NCCNC(=O)c1ccc(C)c(-n2cccc2)c1` | -7.285 |
| `CC(=O)N1[C@H](Cn2cncn2)C[C@@H]2CN(CC3CC3)CC[C@@H]21` | 14.66 |
| `CCc1nsc(N2CCN(CC(=O)Nc3c(C)n[nH]c3C)CC2)n1` | 6.272 |
| `COCC1c2c(cnn2CC2CC2)CCN1Cc1ccc(C)o1` (stereo not shown) | 12.33 |
| `Cc1cnn(C2CN(CC(=O)NCCc3ccccc3)C2)c1` | 13.39 |
| `Cn1cccc(NC(=O)N2CCC(Cc3ccccc3)C2)c1=O` (stereo not shown) | -13.13 |
| `CCc1cc(NC(=O)C2CCCN(C(=O)NCC(C)C)C2)[nH]n1` (stereo not shown) | 13.28 |
| `CC(c1ccco1)N(C(=O)Cn1nc2n(c1=O)CCCCC2)C1CC1` (stereo not shown) | 12.31 |
| `CSc1ccccc1C(=O)NCc1cc2n(n1)CCCN(CC(C)C)C2` | -7.534 |
| `CN(C)C(=O)[C@H]1C[C@@H]2CCN(C3CCOCC3)C[C@H]2O1` | 9.623 |
| `Cc1ccc(SC2CCCC2)c(C(=O)NCCc2n[nH]c(=O)[nH]2)c1` | 14.85 |
| `CNC(=O)[C@H]1C[C@@H]2CN(S(=O)(=O)c3ccc(C)c(F)c3)C[C@@H]2N1C` | 16.3 |
| `CCc1nc(CN(C)C2CCN(CCn3cccn3)C2)no1` (stereo not shown) | 19.94 |
| `Cc1ccccc1C1(CN)CCCCC1` | -30.24 |
| `Cc1ccc2c(c1)CCCN2C(=O)c1cncc(Br)c1` | 6.25 |
| `CCCc1cc(CNC2CCN(c3nc4ccccc4s3)CC2)on1` | 20.25 |
| `COc1ccc(Cl)cc1NCC(=O)NCCNc1cnccn1` | 13.07 |
| `Cc1ncccc1CNC1CCCN(Cc2noc(C3CC3)n2)C1` (stereo not shown) | 26.26 |
| `CC(C(=O)NCC(C)(C)c1ccc2c(c1)OCCO2)n1cncn1` (stereo not shown) | 8.889 |
| `CNC(=O)CCc1cc(C2CCCCN2C)nc(C)n1` (stereo not shown) | 7.862 |
| `Cc1nc(C)n(CC2CCCN2Cc2nc3ccccc3nc2C)n1` (stereo not shown) | 13.29 |
| `Cc1oc(-c2ccsc2)nc1CC(=O)NCCCS(C)(=O)=O` | 4.632 |
| `Cc1cncc(C(=O)N2Cc3ccccc3C3(CCN(C)CC3)C2)c1` | 8.155 |
| `O=C(c1ccc2[nH]cnc2c1)N1CCC(Oc2ccccn2)CC1` | 3.107 |
| `O=C(NC1CC1)C1=CC2(CCN(CC3CC3)CC2)c2ccccc21` | 14.57 |
| `O=C(O)c1cc(-c2ccccc2)ns1` | 13.4 |
| `COc1ccsc1C(=O)NCCNc1ccccc1` | 11.14 |
| `CCOC(=O)c1cn(CC(O)c2ccccc2OC)nn1` (stereo not shown) | 14.29 |
| `Cc1nc(COCc2cnc3n2CCN(C)C3C)cs1` (stereo not shown) | 15.96 |
| `COc1cccc(OCC2CCCN(C(=O)c3cc(C)n[nH]3)C2)c1` (stereo not shown) | 12.97 |
| `CC(C)CCC(=O)N1CCC(c2nnc(CN(C)CCO)n2C)CC1` | 3.911 |
| `CCOC1CCCN(C(=O)c2[nH]nc(C3CC3)c2Br)C1` (stereo not shown) | 8.397 |
| `O=C(NCc1ccoc1)Nc1ccc(CN2CCOC2=O)cc1` | 1.77 |
| `CCS(=O)(=O)NCC1OCCc2cn(CCOC)nc21` (stereo not shown) | 9.489 |
| `O=C(NCC(O)c1ccc(Cl)c(F)c1)NC1CC=CC1` (stereo not shown) | 13.71 |

7 of the entries, repeated:

{"smiles": "COc1ccc2cccc(CC(=O)NCc3n[nH]c(=O)[nH]3)c2c1", "Inhibition": 16.55}
{"smiles": "O=C1CC[C@H]2[C@H](CCN2C(=O)C2CCCO2)N1Cc1cccnc1", "stereo": "stereo partly shown", "Inhibition": 15.85}
{"smiles": "Cn1cccc1C(=O)N1CCC2(CC1)CN(c1ccccn1)CCO2", "Inhibition": 2.362}
{"smiles": "CCN(Cc1ccoc1)C(=O)NC1CCN(CC2CCCC2)CC1", "Inhibition": 24.47}
{"smiles": "CC(C)n1nnc2c(sc3nc(N4CCOCC4)c4c(c32)CCC4)c1=O", "Inhibition": 1.613}
{"smiles": "Cc1nc(COCc2cnc3n2CCN(C)C3C)cs1", "stereo": "stereo not shown", "Inhibition": 15.96}
{"smiles": "CN(C)Cc1cn(CC2CCCN(c3nccc4occc34)C2)nn1", "stereo": "stereo not shown", "Inhibition": 6.301}